Reference: PMC8633288

Key:
MBP = MBP (UniProt P0AEX9); experiment: EMSA; conditions: poly(dI-dC); LightShift EMSA kit, 20 uL: 0.5 uL protein, 4 uL biotin probe (100 pmol), 2 uL binding buffer, 1 uL poly(dI-dC); pH and temperature not stated; recombinant protein; protein details: 6xHis; label: 5' biotin on both strands
[1] = test system: MBP-STM3 (Solanum lycopersicum); experiment: EMSA; conditions: poly(dI-dC); LightShift EMSA kit, 20 uL: 0.5 uL protein, 4 uL biotin probe (100 pmol), 2 uL binding buffer, 1 uL poly(dI-dC); pH and temperature not stated; recombinant protein; protein details: N-terminal MBP, 6xHis (MBP-pMCSG7); label: 5' biotin on both strands
[2] = test system: MBP-STM3 (Solanum lycopersicum); experiment: competition with a labelled probe; conditions: excess unlabeled competitor against labeled N1; LightShift EMSA kit, 20 uL: 0.5 uL protein, 4 uL biotin probe (100 pmol), 2 uL binding buffer, 1 uL poly(dI-dC); pH and temperature not stated; recombinant protein; protein details: N-terminal MBP, 6xHis (MBP-pMCSG7)

Sequence	binding result (MBP)	binding result [1]	binding result [2]
GATACCAAACAGAGAAACACTACTCCACACCCTTCTTTTTTTTTCTTCC (double strand) [FUL1 promoter S1 probe (49 bp)]	no binding	binds	
GATACCAAACAGAGAAACACTACTCCACACCCTTCTTTTTTTTTCTTCC (double strand) [FUL1 promoter S1 unlabeled competitor]			binds
GATTAAAAAAAAAAAAAAACTACTCCACATTTTTTTTTTTTTTTCTTCC (double strand) [muFUL1 mutated probe]		binds more weakly	

For some of these results: No signal at the amounts used counts as a negative. For some of these results: The exact form of at least one protein or probe is not confirmed. For some of these results: A weaker result is weaker than the reference pair of the same experiment.
